Measurements from publication PMC12110989.

Target: T1, AtRLP23 fused to YNE (A. thaliana) (UniProt O48849)
T1 sequence: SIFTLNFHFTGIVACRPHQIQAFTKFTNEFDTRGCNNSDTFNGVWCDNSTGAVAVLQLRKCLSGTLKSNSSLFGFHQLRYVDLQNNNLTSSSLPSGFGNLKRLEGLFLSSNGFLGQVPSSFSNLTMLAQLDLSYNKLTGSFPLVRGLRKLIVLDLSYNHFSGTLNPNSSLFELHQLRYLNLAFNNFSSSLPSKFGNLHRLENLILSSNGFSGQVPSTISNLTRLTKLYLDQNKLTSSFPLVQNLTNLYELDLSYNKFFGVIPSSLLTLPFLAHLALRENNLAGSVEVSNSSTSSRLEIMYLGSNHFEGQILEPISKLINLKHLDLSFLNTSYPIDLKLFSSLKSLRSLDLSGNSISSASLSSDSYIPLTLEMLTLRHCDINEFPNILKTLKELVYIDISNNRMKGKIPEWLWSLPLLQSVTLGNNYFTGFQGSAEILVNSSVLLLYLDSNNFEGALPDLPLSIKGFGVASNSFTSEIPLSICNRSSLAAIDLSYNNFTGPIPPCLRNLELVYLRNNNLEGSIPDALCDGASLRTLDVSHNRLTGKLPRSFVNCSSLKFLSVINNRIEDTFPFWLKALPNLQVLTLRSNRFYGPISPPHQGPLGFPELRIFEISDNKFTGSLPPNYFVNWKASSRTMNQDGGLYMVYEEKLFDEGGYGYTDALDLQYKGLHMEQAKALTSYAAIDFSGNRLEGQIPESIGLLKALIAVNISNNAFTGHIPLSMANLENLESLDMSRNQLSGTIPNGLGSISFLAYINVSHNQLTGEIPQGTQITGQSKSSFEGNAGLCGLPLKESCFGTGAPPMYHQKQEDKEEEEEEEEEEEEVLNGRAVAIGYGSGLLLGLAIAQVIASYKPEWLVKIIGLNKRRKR
Assay: split reporter; BiFC with YNE and YCE halves of YFP (pSPYNE, pSPYCE), co-infiltrated by Agrobacterium GV3101 into N. benthamiana leaves, imaged 36-72 h after infiltration

SsNEP2 fused to YCE (S. sclerotiorum)
binding: no binding

No constants are given. Whether binding was seen depends on the method and setting. In cells and extracts the contact can be indirect. Where a sequence is shown, tags or fusion partners need not be part of it.
